Measurements: US20220118089A1 (UNIVERSITY OF CHICAGO, published 2022)
No constants are given. Whether binding was seen depends on the method and setting. Some results given as binding are weak or reduced against the parent protein; the word gives no strength. Sequences can lack the tags named with a protein.

Protein sequences, listed by entry. Tags and fused reporters are not part of them. Lines headed by an entry give the natural chain unless they say otherwise; changes in a name come on top. Residues count along the entry.
UniProt P02461, residues 154-1221: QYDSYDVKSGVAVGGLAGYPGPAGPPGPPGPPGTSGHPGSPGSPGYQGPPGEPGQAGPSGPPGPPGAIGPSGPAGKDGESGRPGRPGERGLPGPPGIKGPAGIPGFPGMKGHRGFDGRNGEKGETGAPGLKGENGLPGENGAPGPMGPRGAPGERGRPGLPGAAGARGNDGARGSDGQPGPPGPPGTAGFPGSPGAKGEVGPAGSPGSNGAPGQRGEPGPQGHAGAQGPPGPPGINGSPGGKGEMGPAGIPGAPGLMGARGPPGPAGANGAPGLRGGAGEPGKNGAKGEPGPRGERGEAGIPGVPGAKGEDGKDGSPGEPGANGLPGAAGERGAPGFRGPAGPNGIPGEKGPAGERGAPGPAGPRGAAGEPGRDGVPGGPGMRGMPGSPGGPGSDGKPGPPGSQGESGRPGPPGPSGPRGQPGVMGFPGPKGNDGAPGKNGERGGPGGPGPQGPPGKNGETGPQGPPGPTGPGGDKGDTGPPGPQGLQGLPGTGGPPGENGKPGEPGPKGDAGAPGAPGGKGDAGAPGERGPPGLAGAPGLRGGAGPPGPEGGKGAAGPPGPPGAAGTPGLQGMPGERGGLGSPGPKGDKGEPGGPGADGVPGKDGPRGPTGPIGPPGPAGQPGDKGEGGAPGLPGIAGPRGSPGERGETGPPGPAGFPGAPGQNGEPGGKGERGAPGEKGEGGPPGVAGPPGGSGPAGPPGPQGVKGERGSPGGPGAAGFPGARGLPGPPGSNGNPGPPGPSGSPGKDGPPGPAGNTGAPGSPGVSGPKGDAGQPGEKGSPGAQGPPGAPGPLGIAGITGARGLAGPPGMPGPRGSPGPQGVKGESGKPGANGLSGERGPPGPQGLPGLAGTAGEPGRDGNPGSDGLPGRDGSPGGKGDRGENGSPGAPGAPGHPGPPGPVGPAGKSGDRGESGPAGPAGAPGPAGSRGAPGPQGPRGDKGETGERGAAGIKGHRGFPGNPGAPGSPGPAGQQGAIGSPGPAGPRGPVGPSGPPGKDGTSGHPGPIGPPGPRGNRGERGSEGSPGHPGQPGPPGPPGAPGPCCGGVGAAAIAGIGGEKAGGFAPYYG
UniProt P02452: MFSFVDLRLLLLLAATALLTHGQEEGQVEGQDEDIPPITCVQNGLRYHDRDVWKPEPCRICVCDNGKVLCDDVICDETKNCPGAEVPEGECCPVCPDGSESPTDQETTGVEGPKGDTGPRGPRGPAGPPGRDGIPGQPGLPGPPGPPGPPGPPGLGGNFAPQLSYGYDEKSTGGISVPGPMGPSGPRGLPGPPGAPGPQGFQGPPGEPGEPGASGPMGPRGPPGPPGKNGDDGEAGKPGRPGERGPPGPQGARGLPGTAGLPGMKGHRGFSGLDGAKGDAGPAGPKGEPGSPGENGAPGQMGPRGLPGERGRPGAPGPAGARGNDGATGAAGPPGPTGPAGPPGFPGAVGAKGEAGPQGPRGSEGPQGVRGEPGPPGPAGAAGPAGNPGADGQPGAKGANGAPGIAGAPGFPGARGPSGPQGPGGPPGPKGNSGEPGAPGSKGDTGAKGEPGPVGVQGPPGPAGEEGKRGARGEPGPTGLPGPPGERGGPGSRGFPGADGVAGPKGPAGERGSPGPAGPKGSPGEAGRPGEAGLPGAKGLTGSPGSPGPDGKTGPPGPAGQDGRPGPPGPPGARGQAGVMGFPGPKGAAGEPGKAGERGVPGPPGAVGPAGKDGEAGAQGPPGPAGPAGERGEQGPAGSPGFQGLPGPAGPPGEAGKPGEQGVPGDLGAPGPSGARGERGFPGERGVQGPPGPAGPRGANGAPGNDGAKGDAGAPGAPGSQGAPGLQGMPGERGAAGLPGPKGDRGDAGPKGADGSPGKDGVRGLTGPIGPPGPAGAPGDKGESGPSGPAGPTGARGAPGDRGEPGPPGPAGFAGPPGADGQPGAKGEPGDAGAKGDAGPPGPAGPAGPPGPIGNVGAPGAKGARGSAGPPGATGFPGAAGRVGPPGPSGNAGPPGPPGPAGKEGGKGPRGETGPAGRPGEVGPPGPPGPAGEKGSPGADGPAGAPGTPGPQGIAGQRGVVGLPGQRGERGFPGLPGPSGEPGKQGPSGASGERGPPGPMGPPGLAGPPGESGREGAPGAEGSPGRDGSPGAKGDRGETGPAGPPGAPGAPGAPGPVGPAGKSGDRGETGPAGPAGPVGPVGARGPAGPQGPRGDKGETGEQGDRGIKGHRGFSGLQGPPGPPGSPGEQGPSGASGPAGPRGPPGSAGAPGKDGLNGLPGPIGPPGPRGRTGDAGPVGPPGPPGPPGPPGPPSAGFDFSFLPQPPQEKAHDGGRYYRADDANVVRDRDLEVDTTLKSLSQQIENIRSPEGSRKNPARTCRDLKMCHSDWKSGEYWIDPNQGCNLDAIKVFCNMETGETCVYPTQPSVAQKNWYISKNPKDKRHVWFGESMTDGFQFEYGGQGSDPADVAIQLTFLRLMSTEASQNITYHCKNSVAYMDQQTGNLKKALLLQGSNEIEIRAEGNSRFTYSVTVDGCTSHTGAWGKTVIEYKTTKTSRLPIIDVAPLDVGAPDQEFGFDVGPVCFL

Key:
[1] = molecular target: human type III collagen (Millipore Sigma) (human) (UniProt P02461); assay: SPR (FIG. 14B)
[2] = molecular target: T1, human type I collagen (Millipore Sigma) (human, UniProt P02452 162-1218; P08123 80-1119); assay: SPR (FIG. 14B)
T1 construct: treated as one molecule; also called collagen type I

[3] = molecular target: human type III collagen (Millipore Sigma) (human) (UniProt P02461); assay: SPR, collagen immobilised
[4] = molecular target: T1, human type I collagen (Millipore Sigma); assay: SPR, collagen immobilised

Measured: binding

B1: Human VWF A3 domain (CBD), mouse serum albumin and mouse IL-10 fusion protein (other)
chain: CSQPLDVVLLLDGSSSLPESSFDKMKSFAKAFISKANIGPHLTQVSVIQYGSINTIDVPWNVVQEKAHLQSLVDLMQQEGGPSQIGDALAFAVRYVTSQIHGARPGASKAVVIIIMDTSLDPVDTAADAARSNRVAVFPVGVGDRYDEAQLRILAGPGASSNVVKLQQVEDLSTMATLGNSFFHKLCSGFSGVGGGSGGGSEAHKSEIAHRYNDLGEQHFKGLVLIAFSQYLQKCSYDEHAKLVQEVTDFAKTCVADESAANCDKSLHTLFGDKLCAIPNLRENYGELADCCTKQEPERNECFLQHKDDNPSLPPFERPEAEAMCTSFKENPTTFMGHYLHEVARRHPYFYAPELLYYAEQYNEILTQCCAEADKESCLTPKLDGVKEKALVSSVRQRMKCSSMQKFGERAFKAWAVARLSQTFPNADFAEITKLATDLTKVNKECCHGDLLECADDRAELAKYMCENQATISSKLQTCCDKPLLKKAHCLSEVEHDTMPADLPAIAADFVEDQEVCKNYAEAKDVFLGTFLYEYSRRHPDYSVSLLLRLAKKYEATLEKCCAEANPPACYGTVLAEFQPLVEEPKNLVKTNCDLYEKLGEYGFQNAILVRYTQKAPQVSTPTLVEAARNLGRVGTKCCTLPEDQRLPCVEDYLSAILNRVCLLHEKTPVSEHVTKCCSGSLVERRPCFSALTVDETYVPKEFKAETFTFHSDICTLPEKEKQIKKQTALAELVKHKPKATAEQLKTVMDDFAQFLDTCCKAADKDTCFSTEGPNLVTRCKDALAGGGSGGGSSRGQYSREDNNCTHFPVGQSHMLLELRTAFSQVKTFFQTKDQLDNILLTDSLMQDFKGYLGCQALSEMIQFYLVEVMPQAEKHGPEIKEHLNSLGEKLKTLRMRLRRCHRFLPCENKSKAVEQVKSDFNKLQDQGVYKAMNEFDIFINCIEAYMMIKMKSHHHHHH
notes: also called CBD-SA-IL-10; CBD-SA-fused IL-10
binds: all assays above
